The assay concerns BDF1 mice, P388 leukemia ip, median survival T/C. In words: NCI In Vivo Anticancer Drug Screen. Data for tumor model P388 Leukemia (intraperitoneal) in B6D2F1 (BDF1) mice. The conditions noted are these: T/C endpoint: median survival time, higher T/C = longer survival. The procedure, abridged:
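Mice carrying the transplantable tumour receive compound or vehicle. Survival is followed in each arm, and the treated measure is divided by the vehicle measure.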

Where [1] appears, read: dose: 50.0 mg/kg/injection, schedule: Q01DX009 (ip), vehicle: Klucel (hydroxypropylcellulose) (HPC).
Setting [2] is: dose: 100.0 mg/kg/injection, schedule: Q01DX009 (ip), vehicle: Klucel (hydroxypropylcellulose) (HPC).
[3] abbreviates: dose: 200.0 mg/kg/injection, schedule: Q01DX009 (ip), vehicle: Klucel (hydroxypropylcellulose) (HPC).
[4] abbreviates: dose: 200.0 mg/kg/injection, schedule: Q04DX003 (ip), vehicle: saline with Tween-80.
[5] abbreviates: dose: 400.0 mg/kg/injection, schedule: Q04DX003 (ip), vehicle: saline with Tween-80.
Setting [6] is: dose: 100.0 mg/kg/injection, schedule: Q01DX009 (ip), vehicle: saline with Tween-80.
The mark [7] stands for this setting: dose: 400.0 mg/kg/injection, schedule: Q01DX009 (ip), vehicle: Klucel (hydroxypropylcellulose) (HPC).
Setting [8] is: dose: 3.13 mg/kg/injection, schedule: Q01DX009 (ip), vehicle: saline with Tween-80.
Where [9] appears, read: dose: 6.25 mg/kg/injection, schedule: Q01DX009 (ip), vehicle: saline with Tween-80.
The mark [10] stands for this setting: dose: 25.0 mg/kg/injection, schedule: Q01DX009 (ip), vehicle: Klucel (hydroxypropylcellulose) (HPC).
The mark [11] stands for this setting: dose: 200.0 mg/kg/injection, schedule: Q01DX009 (ip), vehicle: saline with Tween-80.
Setting [12] is: dose: 200.0 mg/kg/injection, schedule: Q01DX009 (ip), vehicle: water.
Where [13] appears, read: dose: 400.0 mg/kg/injection, schedule: Q01DX009 (ip), vehicle: water.
[14] abbreviates: dose: 300.0 mg/kg/injection, schedule: Q01DX009 (ip), vehicle: saline with Tween-80.
[15] abbreviates: dose: 400.0 mg/kg/injection, schedule: Q01DX009 (ip), vehicle: saline with Tween-80.

This is an account of results in PubChem BioAssay AID328 (DTP/NCI, 2004).

Molecules are shown by their SMILES. The list does not hold the whole screen: it is rich in T/C values a quarter to a half above the control, in often repeated tests (any T/C) and in doses without a T/C. Other doses and runs of a compound stand elsewhere. T/C is the treated group as % of the vehicle group. Some entries give survivors of the animals treated and no T/C: the source holds a T/C of zero for them, seemingly a mark for toxic or unscored doses. Some survivor counts are full or nearly so, which does not show that the dose was tolerated: survival well below the control is almost never listed, so the zero probably covers shortened survival too. Survivors were counted at the toxicity check, usually on the fifth day, unless a day is given; later deaths do not show. Schedules are NCI's codes, taken here to give the interval after Q, in days (D) or hours (H), and the number of doses after X. For survival time, the PubChem record calls one and a half times the control and up active, and a quarter to a half above the control has no call in these data; cut-offs in other NCI protocols can differ.

Take `COc1ccc2c(OC)c3ccoc3nc2c1OC`: the survivor count was 6 of 6 under setting [1], 6 of 6 under setting [2] and 6 of 6 under setting [3].

For `COc1cccc2c1C(=O)c1c(O)c3c(c(O)c1C2=O)CC(O)(C(C)=O)CC3OC1CC(NC(=O)CNC(=O)CN(C)C)C(O)C(C)O1` (stereo unspecified), under “dose: 25.0 mg/kg/injection, schedule: Q01DX009 (ip), vehicle: water”, the T/C is 135 % of control.

As for `C=C1C(=O)OC2CC(C)C3CC(=O)C(C)=C3C(O)C12` (stereo unspecified), the survivor count under setting [2] was 2 of 6.

On to `ClC1(Cl)Cc2ccccc21`, for which the T/C is 128 % of control under setting [4] and 133 % of control under setting [5].

In the case of `COC(=O)C1=C(\N2CCOCC2)CCCCC/C=C\1C(=O)OC`, under setting [6], the T/C is 127 % of control.

With `C[C@]1(O)CC[C@H]2[C@@H]3CCC4=CC(=O)CC[C@]4(C)[C@@]3(F)C(=O)C[C@@]21C`, the survivor count is, setting by setting: under setting [2], 5 of 6; under setting [3], 6 of 6; under setting [7], 5 of 6.

Turning to `O=NN(CCCl)C(=O)Nc1ccc(I)cc1`, the T/C is 131 % of control (dose: 1.0 mg/kg/injection, schedule: Q01DX009 (ip), vehicle: saline with Tween-80); 145 % of control (dose: 1.5 mg/kg/injection, schedule: Q01DX009 (ip), vehicle: saline with Tween-80); 140 % of control (dose: 1.8 mg/kg/injection, schedule: Q01DX009 (ip), vehicle: saline); 141 % of control under setting [8]; 129 % of control under setting [9]; 145 % of control (dose: 12.5 mg/kg/injection, schedule: Q01DX009 (ip), vehicle: saline with Tween-80). Besides, the T/C (dose: 100.0 mg/kg/injection, schedule: Q04DX003 (ip), vehicle: saline sonified) was 130 % of control. Further, the survivor count reads like this: (dose: 150.0 mg/kg/injection, schedule: Q04DX003 (ip), vehicle: saline sonified) 4 of 6; under setting [4], 2 of 6; under setting [5], 0 of 6.

Take `CC[N+](C)(C)Cc1ccccc1`: the survivor count (dose: 25.0 mg/kg/injection, schedule: Q01DX009 (ip), vehicle: saline) is 4 of 6; the survivor count (dose: 50.0 mg/kg/injection, schedule: Q01DX009 (ip), vehicle: saline) is 0 of 6; the survivor count (dose: 100.0 mg/kg/injection, schedule: Q01DX009 (ip), vehicle: saline) is reported as 0 of 6; the survivor count (dose: 200.0 mg/kg/injection, schedule: Q01DX009 (ip), vehicle: saline) is listed as 0 of 6.

On to `CC[C@@H](C(=O)[C@@H](C)[C@@H](O)[C@H](C)CCc1ccc(C)c(O)c1C(=O)O)[C@H]1O[C@](CC)([C@H]2CC[C@](O)(CC)[C@H](C)O2)C[C@@H]1C`, for which the survivor count reads like this: under setting [10], 5 of 6; under setting [1], 3 of 6; under setting [2], 2 of 6.

Turning to `[O-][n+]1c(CCl)nc2ccccc2c1-c1ccccc1F`, under setting [11], the survivor count is on record as 1 of 6.

For `NC(=S)N/N=C/c1ccc(OC(=O)COc2ccccc2)cn1`, the T/C under setting [8] is 144 % of control and the T/C under setting [9] was 149 % of control. Under setting [11], the survivor count is reported as 6 of 6.

Regarding `BrCc1cc2ccccc2cc1CBr`, the T/C by setting is: (dose: 50.0 mg/kg/injection, schedule: Q04DX003 (ip), vehicle: saline) 125 % of control; (dose: 100.0 mg/kg/injection, schedule: Q04DX003 (ip), vehicle: saline) 129 % of control.

For `OCCN(CCO)c1cc(OCc2ccccc2)cc(OCc2ccccc2)c1`, the survivor count by setting is: (dose: 50.0 mg/kg/injection, schedule: Q01DX009 (ip), vehicle: water) 6 of 6; (dose: 100.0 mg/kg/injection, schedule: Q01DX009 (ip), vehicle: water) 6 of 6; under setting [12], 6 of 6; under setting [13], 6 of 6.

For `O=C(Nc1cc(Cl)ccc1Cl)c1ccccc1Cl`, the survivor count under setting [7] is on record as 6 of 6.

On to `Cc1ccc(S(=O)(=O)[O][Pb]([CH3])([CH3])[CH3])cc1`, for which the survivor count is given as 6 of 6 (dose: 3.0 mg/kg/injection, schedule: Q01DX009 (ip), vehicle: saline); 6 of 6 (dose: 6.0 mg/kg/injection, schedule: Q01DX009 (ip), vehicle: saline); 3 of 6 (dose: 12.0 mg/kg/injection, schedule: Q01DX009 (ip), vehicle: saline).

`CCCCCCCCCCCCCCCCCCOc1ccccn1`: the survivor count was 6 of 6 (dose: 12.5 mg/kg/injection, schedule: Q01DX009 (ip), vehicle: Klucel (hydroxypropylcellulose) (HPC)); 6 of 6 under setting [10]; 6 of 6 under setting [1]; 6 of 6 under setting [2]; 6 of 6 under setting [3].

Regarding `S=c1nn[nH]n1-c1ccccc1.[Cd]`, the survivor count reads like this: (dose: 50.0 mg/kg/injection, schedule: Q01DX009 (ip), vehicle: saline with Tween-80) 0 of 6; under setting [6], 0 of 6; under setting [11], 0 of 6.

Take `SC1CC[N-]CC1.SC1CC[N-]CC1.[Cl][Pt+2][Cl]`: the survivor count by setting is: under setting [12], 1 of 6; under setting [13], 0 of 6.

On to `O=C(NC(Cc1nn[nH]n1)C(=O)OCc1ccccc1)OCc1ccccc1` (stereo unspecified), for which the survivor count is, setting by setting: under setting [14], 4 of 6; under setting [15], 5 of 6; (dose: 500.0 mg/kg/injection, schedule: Q01DX009 (ip), vehicle: saline with Tween-80) 5 of 6; (dose: 600.0 mg/kg/injection, schedule: Q01DX009 (ip), vehicle: saline with Tween-80) 3 of 6. In addition, the T/C under setting [15] is 125 % of control.

`CC(=O)N1c2ccccc2C23CCN4CC5=CCOC(O)C(C5CC42)C13` (stereo unspecified): the T/C by setting is: (dose: 15.0 mg/kg/injection, schedule: Q01DX009 (ip), vehicle: saline) 136 % of control; (dose: 60.0 mg/kg/injection, schedule: Q01DX009 (ip), vehicle: saline) 136 % of control.

For the molecule `c1cc2c(c(NC3=NCCO3)c1)CCCC2`, the survivor count under setting [14] is reported as 3 of 6.

With `NC(Cc1c[nH]c2cc(N(CCCl)CCCl)ccc12)C(=O)O` (stereo unspecified), the T/C (dose: 2.0 mg/kg/injection, schedule: Q04DX003 (sc), vehicle: olive oil, sesame oil, peanut oil) was 125 % of control and the T/C (dose: 3.0 mg/kg/injection, schedule: Q04DX003 (sc), vehicle: olive oil, sesame oil, peanut oil) was 141 % of control. Further, the survivor count (dose: 3.0 mg/kg/injection, schedule: Q01DX009 (sc), vehicle: olive oil, sesame oil, peanut oil) was 2 of 6; the survivor count (dose: 6.0 mg/kg/injection, schedule: Q01DX009 (sc), vehicle: olive oil, sesame oil, peanut oil) is on record as 6 of 6; the survivor count (dose: 12.0 mg/kg/injection, schedule: Q01DX009 (sc), vehicle: olive oil, sesame oil, peanut oil) is reported as 4 of 6; the survivor count (dose: 12.0 mg/kg/injection, schedule: Q04DX003 (sc), vehicle: olive oil, sesame oil, peanut oil) was 6 of 6; the survivor count (dose: 25.0 mg/kg/injection, schedule: Q04DX003 (sc), vehicle: olive oil, sesame oil, peanut oil) was 5 of 6; the survivor count (dose: 50.0 mg/kg/injection, schedule: Q04DX003 (sc), vehicle: olive oil, sesame oil, peanut oil) was 4 of 6. Moreover, the survivor count reads like this: (dose: 100.0 mg/kg/injection, schedule: Q04DX003 (sc), vehicle: olive oil, sesame oil, peanut oil) 0 of 6; (dose: 200.0 mg/kg/injection, schedule: Q04DX003 (sc), vehicle: olive oil, sesame oil, peanut oil) 0 of 6; (dose: 400.0 mg/kg/injection, schedule: Q04DX003 (sc), vehicle: olive oil, sesame oil, peanut oil) 0 of 6.
